Here are results for one sequence from article PMC12167490.

The series has as its system SIRT6-WT. Nature of the series: EMSA. As to conditions: 50 nM DNA, larger shift beginning at 2.0 uM SIRT6, EMSA: 50 mM Tris pH 7.5, 20 mM NaCl, 2 mM MgCl2, 2 mM DTT, RT 15 min, 10 ul, 5% TBE gel, recombinant protein, protein details: tag cleaved with ULP1 (untagged), label: none (ethidium bromide stain). For orientation: Mobility shift assays separate free from complexed probe on a gel.

The exact form of at least one protein or probe is not confirmed.

As to “CTACTGGTACGGCAGACAGGATGTATATATCTGACACGTGCCTGGAGACTAGGGAGTAATCCCCTTGGCGGTTAAAACGCGGGGGACAGCGCGTACGTGCGTTTAAGCGGTGCTAGAGCTGTCTACGACCAATTGAGCGGCCTCGGCACCGGGATTCTCCAGTATTCGAGGCCGTTC (double strand) [ds601 DNA (177 bp)]”, the binding result is on record as “binds”.
